The values that follow come from publication PMC4066819.

Protein sequences, listed by entry. Tags and fused reporters are not part of them.
UniProt P37238: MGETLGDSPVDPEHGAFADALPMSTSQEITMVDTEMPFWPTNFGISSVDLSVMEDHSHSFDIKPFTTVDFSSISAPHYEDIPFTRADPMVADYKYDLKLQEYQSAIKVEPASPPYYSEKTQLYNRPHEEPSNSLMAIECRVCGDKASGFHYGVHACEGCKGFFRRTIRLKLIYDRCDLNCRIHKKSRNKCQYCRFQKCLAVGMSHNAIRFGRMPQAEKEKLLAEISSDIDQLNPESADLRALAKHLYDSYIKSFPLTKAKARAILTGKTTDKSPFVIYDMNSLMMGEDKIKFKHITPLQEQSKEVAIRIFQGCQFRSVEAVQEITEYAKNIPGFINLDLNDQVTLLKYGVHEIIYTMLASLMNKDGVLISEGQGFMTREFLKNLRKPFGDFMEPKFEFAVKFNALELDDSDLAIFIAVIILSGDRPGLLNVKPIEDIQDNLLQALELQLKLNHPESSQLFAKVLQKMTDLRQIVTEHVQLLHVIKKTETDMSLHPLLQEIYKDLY
UniProt E9QAP7: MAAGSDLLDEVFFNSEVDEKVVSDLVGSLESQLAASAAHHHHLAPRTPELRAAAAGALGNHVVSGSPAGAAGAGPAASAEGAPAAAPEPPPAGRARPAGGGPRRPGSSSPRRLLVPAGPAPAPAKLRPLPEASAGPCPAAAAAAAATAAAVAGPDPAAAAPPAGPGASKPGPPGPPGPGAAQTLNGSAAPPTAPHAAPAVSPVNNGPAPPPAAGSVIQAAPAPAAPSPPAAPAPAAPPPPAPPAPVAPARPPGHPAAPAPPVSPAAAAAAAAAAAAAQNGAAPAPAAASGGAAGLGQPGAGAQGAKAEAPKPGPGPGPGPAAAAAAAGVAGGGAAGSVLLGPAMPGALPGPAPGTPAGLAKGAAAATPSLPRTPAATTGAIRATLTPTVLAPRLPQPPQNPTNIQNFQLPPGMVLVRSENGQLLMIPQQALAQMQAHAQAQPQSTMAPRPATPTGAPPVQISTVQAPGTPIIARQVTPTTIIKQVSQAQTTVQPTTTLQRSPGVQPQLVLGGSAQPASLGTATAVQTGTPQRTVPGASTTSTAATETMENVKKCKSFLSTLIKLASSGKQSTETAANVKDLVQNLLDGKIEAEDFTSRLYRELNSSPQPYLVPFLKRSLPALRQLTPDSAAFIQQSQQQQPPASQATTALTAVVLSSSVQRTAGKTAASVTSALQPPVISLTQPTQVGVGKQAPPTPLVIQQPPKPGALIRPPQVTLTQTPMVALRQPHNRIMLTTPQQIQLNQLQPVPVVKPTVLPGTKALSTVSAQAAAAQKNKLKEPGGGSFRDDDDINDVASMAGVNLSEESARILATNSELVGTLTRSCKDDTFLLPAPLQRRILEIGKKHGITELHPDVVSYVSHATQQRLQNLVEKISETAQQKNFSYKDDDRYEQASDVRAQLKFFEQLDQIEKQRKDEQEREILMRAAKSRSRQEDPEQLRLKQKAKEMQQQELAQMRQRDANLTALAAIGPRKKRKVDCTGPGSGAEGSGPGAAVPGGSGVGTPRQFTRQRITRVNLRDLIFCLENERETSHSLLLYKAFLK
UniProt Q8C092: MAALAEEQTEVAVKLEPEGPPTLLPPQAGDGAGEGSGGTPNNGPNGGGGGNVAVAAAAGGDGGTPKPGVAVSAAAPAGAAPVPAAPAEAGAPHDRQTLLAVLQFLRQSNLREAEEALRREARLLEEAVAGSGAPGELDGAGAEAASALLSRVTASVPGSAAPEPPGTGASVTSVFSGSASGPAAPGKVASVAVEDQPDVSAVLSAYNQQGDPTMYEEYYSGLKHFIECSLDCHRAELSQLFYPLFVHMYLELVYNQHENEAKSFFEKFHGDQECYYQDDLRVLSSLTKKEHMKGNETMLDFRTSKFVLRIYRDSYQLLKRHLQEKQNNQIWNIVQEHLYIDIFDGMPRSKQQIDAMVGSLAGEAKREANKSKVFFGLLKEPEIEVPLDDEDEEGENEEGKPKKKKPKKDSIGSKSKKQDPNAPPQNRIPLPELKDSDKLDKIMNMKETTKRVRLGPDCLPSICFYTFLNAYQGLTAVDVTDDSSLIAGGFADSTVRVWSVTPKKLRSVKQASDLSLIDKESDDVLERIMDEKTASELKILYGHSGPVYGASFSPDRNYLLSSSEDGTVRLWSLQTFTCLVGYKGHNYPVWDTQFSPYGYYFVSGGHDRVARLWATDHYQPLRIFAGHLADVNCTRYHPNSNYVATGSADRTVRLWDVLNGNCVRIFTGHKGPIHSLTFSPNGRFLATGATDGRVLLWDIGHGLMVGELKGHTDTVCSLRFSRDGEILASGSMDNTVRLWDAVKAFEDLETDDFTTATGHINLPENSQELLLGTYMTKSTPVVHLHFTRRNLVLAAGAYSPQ
UniProt Q62311: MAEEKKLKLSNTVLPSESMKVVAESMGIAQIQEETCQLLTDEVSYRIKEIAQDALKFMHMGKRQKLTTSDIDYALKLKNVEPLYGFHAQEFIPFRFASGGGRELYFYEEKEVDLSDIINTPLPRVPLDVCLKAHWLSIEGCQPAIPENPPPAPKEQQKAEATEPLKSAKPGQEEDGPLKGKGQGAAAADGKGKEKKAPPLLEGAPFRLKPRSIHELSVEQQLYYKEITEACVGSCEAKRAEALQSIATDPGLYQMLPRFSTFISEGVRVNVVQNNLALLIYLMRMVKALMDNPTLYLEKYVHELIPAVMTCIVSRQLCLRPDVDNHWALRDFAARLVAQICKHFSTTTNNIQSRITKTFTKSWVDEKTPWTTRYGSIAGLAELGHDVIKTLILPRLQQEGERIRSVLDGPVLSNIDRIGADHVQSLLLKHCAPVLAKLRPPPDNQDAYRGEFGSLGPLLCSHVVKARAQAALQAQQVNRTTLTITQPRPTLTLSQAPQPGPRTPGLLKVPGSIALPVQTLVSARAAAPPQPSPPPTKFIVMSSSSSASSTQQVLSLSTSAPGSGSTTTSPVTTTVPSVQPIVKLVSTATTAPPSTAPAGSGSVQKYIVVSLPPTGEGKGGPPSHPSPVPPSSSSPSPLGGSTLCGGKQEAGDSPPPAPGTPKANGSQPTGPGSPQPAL
UniProt Q8K0H5: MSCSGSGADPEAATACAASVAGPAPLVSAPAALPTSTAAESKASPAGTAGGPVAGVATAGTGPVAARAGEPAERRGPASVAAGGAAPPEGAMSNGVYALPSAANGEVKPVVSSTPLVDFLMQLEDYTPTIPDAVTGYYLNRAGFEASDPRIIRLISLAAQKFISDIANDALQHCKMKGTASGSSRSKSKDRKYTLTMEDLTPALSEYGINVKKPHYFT

No constants are given. Whether binding was seen depends on the method and setting. Binding seen in cells or lysates may run through a third protein. Here binding means that the protein was enriched with, or labelled near, the bait; the list need not be complete. For some of these results: No binding means not detected with the bait. Where a sequence is shown, tags or fusion partners need not be part of it.

T1: FLAG-V5-TAF7L (TATA-binding protein associated factor 7L, doubly tagged), Q9D3R9
T1 chain: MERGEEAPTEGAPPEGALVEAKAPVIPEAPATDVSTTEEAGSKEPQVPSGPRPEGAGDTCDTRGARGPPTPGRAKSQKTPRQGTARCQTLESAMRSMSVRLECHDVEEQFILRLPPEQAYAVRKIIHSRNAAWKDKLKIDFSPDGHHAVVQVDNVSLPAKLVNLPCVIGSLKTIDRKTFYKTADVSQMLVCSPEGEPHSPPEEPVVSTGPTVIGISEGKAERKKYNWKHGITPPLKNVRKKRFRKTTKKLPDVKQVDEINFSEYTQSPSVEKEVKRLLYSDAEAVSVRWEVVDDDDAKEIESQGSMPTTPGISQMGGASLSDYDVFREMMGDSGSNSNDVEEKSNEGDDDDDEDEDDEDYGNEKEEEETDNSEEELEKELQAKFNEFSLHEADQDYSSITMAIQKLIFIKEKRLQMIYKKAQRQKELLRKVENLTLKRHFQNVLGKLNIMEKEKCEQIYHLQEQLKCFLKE

T2: FLAG-V5-TAF7L (TATA-binding protein associated factor 7L, doubly tagged) (UniProt Q9D3R9)
T2 sequence: T1 chain

B1: TBP, P29037 1-316 (protein)
chain: MDQNNSLPPYAQGLASPQGAMTPGIPIFSPMMPYGTGLTPQPIQNTNSLSILEEQQRQQQQQQQQQQQQQAVATAAASVQQSTSQQPTQGASGQTPQLFHSQTLTTAPLPGTTPLYPSPMTPMTPITPATPASESSGIVPQLQNIVSTVNLGCKLDLKTIALRARNAEYNPKRFAAVIMRIREPRTTALIFSSGKMVCTGAKSEEQSRLAARKYARVVQKLGFPAKFLDFKIQNMVGSCDVKFPIRLEGLVLTHQQFSSYEPELFPGLIYRMIKPRIVLLIFVSGKVVLTGAKVRAEIYEAFENIYPILKGFRKTT
B2: FKBP15 (protein, UniProt Q6P9Q6 1-1216)
chain: MFGAGDEDDTDFLSPSGGAKLASLFGLDQATMGHGNEFFQYTAPKQPKKGQGTAAGNQTAPKPAPATTGTSSVLFATAVHAYRYINGQYAKQGKFGAAVLGNHTSREYRILLYISQQQPVTVATIHLNFELMVRPNNYSTFYDDQRQNWSIMFESEKAAVSFNKQVCVAKCNSISSLDAVLCQDLVAAEGPAVETGDSLEVAYTGWLLQNHVLGQVFDSTANKDKPLRLKLGSGKVVKGLEDGLLGMKKGGKRLIITPSACAAGSEGVIGWTQPTDSILVFEVEVRRVKFARDSGSDGHSVSSRDSAAPSPIPASDSLSADPVVTPLPLPLKPGEPGLRSKSNSLSEQLTVNSNPDTVKAKLISRMAKMGQPMLPILPPQLDSNDSETEDATVLRGAGQSLVTPSIQPSLQPAHPVLPQMASQAPQPSGSGLQTPSAALMQAVSLDSHSAVSGNAQNFQPYAGVQAYAYPQTPSVTSQLQPVRPLYPAPLSQAPHFQGSGDMMSFLMTEARQHNTEIRMAVNKVADKMDHLMTKVEELQKHSSGNSMLLPSMSVTMETSMIMSNIQRIIQENERLKQELLEKSSRIEEQNDKISDLIERNQRYVEQSNLMMEKRNNSLQTATENTQARILHAEQEKAKVTEELAAATAQVSHLQLKMTAHQKKETELQLQLTDNLKETDLLRGHVTRLQADLSELREASEQTQTKFKSEKQSRRQLELKVTSLEEELTDLRAEKTSLEKNLSERKKKSAQERCQAEAEMDEIRKSHQEELDRLRQLLKKARVSTDQAAAEQLTLAQAELQSQWEAKCEQLLASARDEHLQQYREVCAQRDAHQQKLALLQDECLALQAQIAAFTEQKEHMQRLEKTKSQAPAGRAAADPSEKVKKIMNQVFQSLRGEFELEESYDGGTILRTIMHTIKMVTLQLLNHQEEEEEEEEEEEEEKKPLRPSLEQPGPATPGMPPAPPSGETQEAPEVLPEQVVGETTPLPLQALPTPENGAQTRKGEPAEAEVPSEIKDSSLPPQPAGIPAHRVLGPPTSIPPKPPGPVTMDSESEEMLAADQRTVQPNGLLGEEHVREVATDGLLQGNSRRLSLTPDPEKGEPPALDPESQGGEAQPPECKQAEDVSSSGPRETLLDTELASAAAGTSLRHNQDSQHCSLSGDEEDELFKGATLKVPRPTAQPEEEDEDEVSMKGRPPPTPLFGDDDDDDDDDIGWLG

The target in the first experiment is T1, FLAG-V5-TAF7L (TATA-binding protein …). The experiment can be described thus: affinity purification with mass spectrometry; sequential immunoprecipitation (ANTI-FLAG M2 gel, FLAG peptide elution, then anti-V5 agarose, glycine pH 2.5 elution) from 3 mg whole-cell extract of post-differentiated FLAG-V5-GFP/TAF7L C3H10T1/2 adipocytes; 0.3 M NaCl, 0.2% NP-40, 4°C overnight; LC-MS/MS of the eluate. Conditions: remark: other sources report otherwise.
For the molecule B1, the binding entry is on record as “binds”.

In a further experiment the target is T2, FLAG-V5-TAF7L (TATA-binding protein associated factor 7L, doubly tagged). The experiment is described as above.
Conditions: not given
With PPARγ (from UniProt P37238 1-505), the binding entry is on record as “binds”.

Turning to TAF4 (from UniProt E9QAP7 1-1042), the binding entry is given as “binds”.

Turning to TAF5 (from UniProt Q8C092 1-801), the binding entry was “binds”.

With TAF6 (from UniProt Q62311 1-678), the binding result is recorded as “binds”.

TAF10 (from UniProt Q8K0H5 1-218): the binding entry was “binds”.

Regarding B2, the binding result is “no binding”.
